Results as given in patent US20240384250A1, “FIBROBLAST GROWTH FACTOR 23 MODULATING COMPOUNDS” (THE UAB RESEARCH FOUNDATION, priority 2021, published 2024).

Legend:
[1] = target: recombinant FGF23 protein (species not stated for the assay); experiment: sKL detection assay (sandwich): FGF23 coated, sKL sample, then Fc-FGFR1c, anti-Fc-HRP (FIG. 22B)
[2] = target: recombinant FGF23 protein (species not stated for the assay); experiment: sandwich plate assay: FGF23 coated, klotho preparation, then Fc-FGFR1c and anti-Fc-HRP
[3] = target: recombinant FGF23 protein (species not stated for the assay); experiment: sKL detection assay (sandwich): FGF23 coated, sKL sample, then Fc-FGFR1c, anti-Fc-HRP, A450
[4] = target: recombinant FGF23 protein (species not stated for the assay); experiment: sandwich plate assay: FGF23 coated, klotho preparation, then Fc-FGFR1c and anti-Fc-HRP [legend FIG. 22B]

Measured: binding

B1: commercial mouse sKL from R&D Systems (1819KL050) (receptor)
chain: AEPGQGAQTWARFARAPAPEAAGLLHDTFPDGFLWAVGSAAYQTEGGWRQHGKGASIWDTFTHHSGAAPSDSPIVVAPSGAPSPPLSSTGDVASDSYNNVYRDTEGLRELGVTHYRFSISWARVLPNGTAGTPNREGLRYYRRLLERLRELGVQPVVTLYHWDLPQRLQDTYGGWANRALADHFRDYAELCFRHFGGQVKYWITIDNPYVVAWHGYATGRLAPGVRGSSRLGYLVAHNLLLAHAKVWHLYNTSFRPTQGGRVSIALSSHWINPRRMTDYNIRECQKSLDFVLGWFAKPIFIDGDYPESMKNNLSSLLPDFTESEKRLIRGTADFFALSFGPTLSFQLLDPNMKFRQLESPNLRQLLSWIDLEYNHPPIFIVENGWFVSGTTKRDDAKYMYYLKKFIMETLKAIRLDGVDVIGYTAWSLMDGFEWHRGYSIRRGLFYVDFLSQDKELLPKSSALFYQKLIEDNGFPPLPENQPLEGTFPCDFAWGVVDNYVQVDTTLSQFTDPNVYLWDVHHSKRLIKVDGVVAKKRKPYCVDFSAIRPQITLLREMRVTHFRFSLDWALILPLGNQTQVNHTVLHFYRCMISELVHANITPVVALWQPAAPHQGLPHALAKHGAWENPHTALAFADYANLCFKELGHWVNLWITMNEPNTRNMTYRAGHHLLRAHALAWHLYDDKFRAAQKGKISIALQADWIEPACPFSQNDKEVAERVLEFDIGWLAEPIFGSGDYPRVMRDWLNQKNNFLLPYFTEDEKKLVRGSFDFLAVSHYTTILVDWEKEDPMKYNDYLEVQEMTDITWLNSPSQVAVVPWGLRKVLNWLRFKYGDLPMYVTANGIDDDPHAEQDSLRIYYIKNYVNEALKAYVLDDINLCGYFAYSLSDRSAPKSGFYRYAANQFEPKPSMKHYRKIIDSNGFLGSGTLGRFCPEEYTVCTECGFFQTRK
binds: all assays above

Results are given in words; binding and its absence hold for the method and conditions named. A result given as binding can be weak or reduced; the word gives no strength.
